Assay results: PMC5309874
These are yes or no findings as the source states them, for the method shown.

Target: Plasmodium falciparum vacuolar iron transporter homologue PfVIT (Plasmodium falciparum 3D7) (UniProt Q8I5I0)
Assay: SEC; Superdex 200 10/300 GL; 50 mM Tris-HCl pH 8.0, 300 mM NaCl, 10 mM imidazole, 5% v/v glycerol, 1 mM DTT, 0.1% w/v FC-12; 4 °C; elution volume compared with monomeric membrane proteins GlpT (53 kDa, 11.6 ml) and MdtM (45 kDa, 12.0 ml) on the same column; both purified

binding: no binding
B1: Plasmodium falciparum vacuolar iron transporter homologue PfVIT (protein, UniProt Q8I5I0 1-273)
chain: MVSKKTIEARKAYYNEDVVLSKEAHDFYHNLDKHGENHNLDKDNLKTIIFGSLDGIITIFAIVSGCVGAKITPTQVIIIGIGNLFANAISMGFSEYTSSTAQRDFMLAEKKREEWEIENCPSEEKQEMIDIYMNKYKFDSEDARNLVEITFRNKNFFLEHMMSEELGLIVTNEDKNECLKKGIIMFLSFAVFGIIPLSAYVAYTVFFGYTDYTTSFLVVFISTLTTLFILGLFKSQFTNQKPITCALYMVLNGMIAGMVPFLLGVVLKNNISE
